Assay results from PubChem BioAssay AID330 (DTP/NCI, 2004).
The list is a part of this screen's results and no random one: it gathers tests that were run many times, whatever their T/C, doses with no T/C, and many T/C values between a quarter and a half above the control. Other doses and runs of a compound stand elsewhere. T/C is the treated group as % of the vehicle group. Some doses have a count of surviving animals in place of a T/C: the source holds a T/C of zero for them, seemingly a mark for toxic or unscored doses. Some doses without a T/C left all or most animals alive at the check, yet need not have been tolerated: survival well below the control is almost never listed, so the zero probably covers shortened survival too. Counts of survivors are from the toxicity check (mostly the fifth day) where no day follows; animals may have died later. Schedules are NCI's codes, read here as Q, the interval in days (D) or hours (H), X, the number of doses. Some doses were run more than once; the values are given in rising order. For survival time, this PubChem deposit counts one and a half times the control or more as active, and values a quarter to a half above the control carry no call in these data; other NCI protocols may use other cut-offs.

Tested on: P388 leukemia ip, CD2F1 mice, survival T/C
Assay: NCI In Vivo Anticancer Drug Screen. Data for tumor model P388 Leukemia (intraperitoneal) in CD2F1 (CDF1) mice
Conditions: T/C endpoint: median survival time, higher T/C = longer survival
[1] = dose: 6.25 mg/kg/injection, schedule: Q01DX005 (ip), vehicle: Klucel (hydroxypropylcellulose) (HPC)
[2] = dose: 12.5 mg/kg/injection, schedule: Q01DX005 (ip), vehicle: Klucel (hydroxypropylcellulose) (HPC)
[3] = dose: 50.0 mg/kg/injection, schedule: Q01DX005 (ip), vehicle: Klucel (hydroxypropylcellulose) (HPC)
[4] = dose: 100.0 mg/kg/injection, schedule: Q01DX005 (ip), vehicle: Klucel (hydroxypropylcellulose) (HPC)
[5] = dose: 200.0 mg/kg/injection, schedule: Q01DX005 (ip), vehicle: Klucel (hydroxypropylcellulose) (HPC)
[6] = dose: 200.0 mg/kg/injection, schedule: Q01DX009 (ip), vehicle: Klucel (hydroxypropylcellulose) (HPC)
[7] = dose: 240.0 mg/kg/injection, schedule: Q01DX005 (ip), vehicle: saline with Tween-80
[8] = dose: 200.0 mg/kg/injection, schedule: Q04DX003 (ip), vehicle: saline
[9] = dose: 100.0 mg/kg/injection, schedule: Q01DX009 (ip), vehicle: saline with Tween-80
[10] = dose: 25.0 mg/kg/injection, schedule: Q01DX005 (ip), vehicle: saline with Tween-80
[11] = dose: 50.0 mg/kg/injection, schedule: Q01DX005 (ip), vehicle: saline with Tween-80
[12] = dose: 100.0 mg/kg/injection, schedule: Q01DX005 (ip), vehicle: saline with Tween-80
[13] = dose: 200.0 mg/kg/injection, schedule: Q01DX005 (ip), vehicle: saline with Tween-80
[14] = dose: 12.5 mg/kg/injection, schedule: Q01DX009 (ip), vehicle: Klucel (hydroxypropylcellulose) (HPC)
[15] = dose: 240.0 mg/kg/injection, schedule: Q01DX005 (ip), vehicle: saline
[16] = dose: 400.0 mg/kg/injection, schedule: Q04DX003 (ip), vehicle: saline with Tween-80
[17] = dose: 200.0 mg/kg/injection, schedule: Q01DX009 (ip), vehicle: saline with Tween-80

`CN=C(c1ccc(NC(=O)c2ccc(C(=O)Nc3ccc(C(=NC)N(C)C4CCCCC4)cc3)cc2)cc1)N(C)C1CCCCC1` was tested, and the survivor count [1] was 0 of 6, the survivor count [2] was 0 of 6 and the survivor count (dose: 25.0 mg/kg/injection, schedule: Q01DX005 (ip), vehicle: Klucel (hydroxypropylcellulose) (HPC)) was 0 of 6. The survivor count [3] was 0 of 6, the survivor count [4] was 0 of 6 and the survivor count [5] was 0 of 6.

`O=C(NCCN1CCCCC1)c1ccc(Cl)cc1Cl` was tested, and the survivor count [6] was 2 of 6.

With `COC(=O)n1sc(SC)nc1=N` the survivor count [4] was 0 of 6 and the survivor count [5] was 0 of 6.

In the case of `Fc1ccc2nc3ccccc3c(SCCNCCSc3c4ccccc4nc4ccc(F)cc34)c2c1`, the survivor count [7] is reported as 6 of 6.

For `CCOc1ccc2c(c1)c(C)cc(C)[n+]2CC`, the survivor count (dose: 25.0 mg/kg/injection, schedule: Q04DX003 (ip), vehicle: saline with Tween-80) was 0 of 6.

For `CCN(CC)CCOC(=O)c1c(C)cc(C)cc1C`, the survivor count [8] was 4 of 6.

In the case of `CCOC(=O)/C=C1\COc2nc(N)[nH]c(=O)c2N1`, the survivor count [3] is reported as 6 of 6.

For `C=C(C)C1=CC(=O)C(C)(C)O1`, the T/C [9] was 128 % of control.

With `COc1cccc2c1C(=O)c1c(O)c3c(c(O)c1C2=O)C[C@@](O)(C(C)O)C[C@@H]3OC1CC(N2CCC(OC)CC2)C(O)C(C)O1` (some centres undefined) the T/C (dose: 6.25 mg/kg/injection, schedule: Q04DX003 (ip), vehicle: water) was 130 % of control and the T/C (dose: 25.0 mg/kg/injection, schedule: Q04DX003 (ip), vehicle: water) was 126 % of control.

`CNC(=O)OCc1c(COC(=O)NC)c2n(c1C)CSC2` was tested, and the T/C [10] was 126 and 128 % of control, the T/C [11] was 131 and 132 % of control and the survivor count [12] was 5 of 6 and 6 of 6. For the same compound, the survivor count [13] was 6 of 6.

With `CCOC(=O)Nc1cc2c(c(N)n1)N=C(CN(C)c1ccccc1)CN2` the T/C [14] was 126 % of control, the survivor count (dose: 50.0 mg/kg/injection, schedule: Q01DX009 (ip), vehicle: Klucel (hydroxypropylcellulose) (HPC)) was 6 of 6 and the survivor count (dose: 150.0 mg/kg/injection, schedule: Q01DX001 (ip), vehicle: Klucel (hydroxypropylcellulose) (HPC)) was 3 of 10.

For `COc1ccccc1NC(=S)N/N=C\c1cc(N=Nc2ccccc2)cc(OC)c1O`, the survivor count [13] was 2 of 6.

`COc1ccc2ccccc2c1C1=CC(c2ccccc2)C(c2cc(C)n(-c3ccccc3)n2)C(=O)N1` (centres undefined) was tested, and the survivor count (dose: 400.0 mg/kg/injection, schedule: Q04DX002 (ip), vehicle: saline with Tween-80) was 4 of 6.

In the case of `CC1CCC(OC(=O)N(CCCl)N=O)CC1` (centres undefined), the T/C (dose: 50.0 mg/kg/injection, schedule: Q01DX001 (ip), vehicle: saline with Tween-80) is reported as 126 and 127 % of control.

For `CC(=O)C1C(=O)C=C(C)OC1=O.CC(=O)C1C(=O)C=C(C)OC1=O.[Hg]` (centres undefined), the survivor count [14] was 0 of 6 and the survivor count (dose: 25.0 mg/kg/injection, schedule: Q01DX009 (ip), vehicle: Klucel (hydroxypropylcellulose) (HPC)) was 0 of 6.

For `CN(C)c1nc(=O)c2ccccc2o1`, the survivor count (dose: 120.0 mg/kg/injection, schedule: Q01DX005 (ip), vehicle: saline) was 0 of 6 and the survivor count [15] was 0 of 6.

For `CC1S(=O)(=O)OCCOS1(=O)=O`, the T/C [1] was 128 % of control, the T/C [2] was 147 % of control and the survivor count [4] was 0 of 6 and 3 of 6.

`Cc1cc(N2CCOCC2)n2c(nc3ccccc32)c1C#N` was tested, and the survivor count [7] was 5 of 6.

In the case of `C[C@]12CCCC[C@@H]1CC[C@@H]1[C@@H]2[C@@H](O)C[C@]2(C)[C@@H](O)CC[C@@H]12`, the survivor count [16] is reported as 2 of 6.

For `COc1ccc(/C(=N/SC)N(C)C)cc1`, the survivor count (dose: 60.0 mg/kg/injection, schedule: Q01DX005 (ip), vehicle: saline with Tween-80) was 0 of 6, the survivor count (dose: 120.0 mg/kg/injection, schedule: Q01DX005 (ip), vehicle: saline with Tween-80) was 0 of 6 and the survivor count [7] was 0 of 6.

In the case of `C=CC(=NC(C)(C)C)Nc1c(Cl)cccc1Cl`, the survivor count (dose: 25.0 mg/kg/injection, schedule: Q01DX009 (ip), vehicle: saline with Tween-80) is reported as 3 of 6, the survivor count (dose: 50.0 mg/kg/injection, schedule: Q01DX009 (ip), vehicle: saline with Tween-80) is reported as 1 of 6 and the survivor count (dose: 50.0 mg/kg/injection, schedule: Q01DX009 (ip), vehicle: saline) is reported as 1 of 6. For the same compound, the survivor count [9] was 0 of 6 and the survivor count [17] was 0 of 6.

With `NCCOc1c2occc2cc2ccc(=O)oc12` the survivor count (dose: 200.0 mg/kg/injection, schedule: Q01DX001 (ip), vehicle: saline) was 0 of 6 and the survivor count (dose: 400.0 mg/kg/injection, schedule: Q01DX001 (ip), vehicle: saline) was 0 of 6.

`O=C(CCN1CCCCC1)c1ccccc1` was tested, and the survivor count [9] was 0 of 6 and the survivor count [17] was 0 of 6.

For `COc1cccc(CC#N)c1O`, the survivor count [6] was 2 of 6.

In the case of `CC(=O)c1ccc(C)cc1C`, the survivor count (dose: 400.0 mg/kg/injection, schedule: Q01DX009 (ip), vehicle: saline with Tween-80) is reported as 1 of 6.

For `C/C(Cl)=C/CN(C/C=C(/C)Cl)CCO`, the survivor count [13] was 0 of 6.

`C=C1C(=O)OC2C1CC/C(C)=C/CCC1(C)OC21` (centres undefined) was tested, and the T/C (dose: 35.0 mg/kg/injection, schedule: Q01DX009 (ip), vehicle: Klucel (hydroxypropylcellulose) (HPC)) was 136 % of control.

With `COc1ccc(C2CC(=O)C(C(=O)OC3CCCCC3)C2c2ccc(OC)cc2)cc1` (centres undefined) the survivor count (dose: 100.0 mg/kg/injection, schedule: Q01DX001 (ip), vehicle: Klucel (hydroxypropylcellulose) (HPC)) was 6 of 6, the survivor count (dose: 200.0 mg/kg/injection, schedule: Q01DX001 (ip), vehicle: Klucel (hydroxypropylcellulose) (HPC)) was 6 of 6 and the survivor count (dose: 400.0 mg/kg/injection, schedule: Q01DX001 (ip), vehicle: Klucel (hydroxypropylcellulose) (HPC)) was 6 of 6.

In the case of `O=C1C2C3CCC(O3)C2C(=O)N1CO` (centres undefined), the survivor count [15] is reported as 3 of 6.

With `N#CC(C#N)=CC(C#N)C#N` the survivor count (dose: 100.0 mg/kg/injection, schedule: Q01DX005 (ip), vehicle: saline) was 0 of 5 and the survivor count (dose: 200.0 mg/kg/injection, schedule: Q01DX005 (ip), vehicle: saline) was 0 of 5.

`COc1ccc2cc(N3CCCC3)ccc2c1` was tested, and the survivor count [8] was 6 of 6.

For `COc1cc(C=Nc2cc(Cl)cc(Cl)c2)ccc1N(CCCl)CCCl`, the survivor count [16] was 5 of 6.

In the case of `CCOC(=O)C1=C(C#N)C2(CCC(OCc3ccccc3)CC2)C(=O)O1` (centres undefined), the T/C (dose: 200.0 mg/kg/injection, schedule: Q01DX009 (ip), vehicle: saline) is reported as 127 % of control.

`CC(C)COC(=O)N1c2ccccc2C=CC1OCC(C)C` (centres undefined) was tested, and the survivor count [10] was 0 of 6, the survivor count [11] was 0 of 6 and the survivor count [12] was 0 of 6. For the same compound, the survivor count [13] was 0 of 6.
